# Experimental data: the M2OR odorant receptor database
# Only a part is listed here, and it is no random draw. The calls were merged from several studies; some rest on single wells. This is one part of the list.
# Tests used:
# Settings in all cases: stereoisomer not certain
# OR5M11 (Homo sapiens) = target: T1, OR5M11 (Homo sapiens) (UniProt Q96RB7)
# T1 sequence (whole entry): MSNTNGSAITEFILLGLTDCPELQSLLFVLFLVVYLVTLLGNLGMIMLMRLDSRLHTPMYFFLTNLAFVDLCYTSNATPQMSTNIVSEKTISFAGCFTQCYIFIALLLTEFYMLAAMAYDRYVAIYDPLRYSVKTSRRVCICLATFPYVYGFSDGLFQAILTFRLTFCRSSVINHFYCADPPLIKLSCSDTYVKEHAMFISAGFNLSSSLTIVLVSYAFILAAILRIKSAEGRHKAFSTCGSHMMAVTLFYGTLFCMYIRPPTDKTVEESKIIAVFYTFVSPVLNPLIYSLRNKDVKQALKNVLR
# How it was run: (§1)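 Each receptor–molecule pair is labelled responsive or non-responsive (inactive) according to whether the original authors judged the measured signal statistically different from baseline. The data were taken from the main text and supplementary material of published papers and checked for typos and inconsistencies. Assay methods differed by source, with transient luciferase assays in mammalian cell lines being common.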
# OR5M1 = test system: T2, OR5M1
# T2 sequence (whole entry): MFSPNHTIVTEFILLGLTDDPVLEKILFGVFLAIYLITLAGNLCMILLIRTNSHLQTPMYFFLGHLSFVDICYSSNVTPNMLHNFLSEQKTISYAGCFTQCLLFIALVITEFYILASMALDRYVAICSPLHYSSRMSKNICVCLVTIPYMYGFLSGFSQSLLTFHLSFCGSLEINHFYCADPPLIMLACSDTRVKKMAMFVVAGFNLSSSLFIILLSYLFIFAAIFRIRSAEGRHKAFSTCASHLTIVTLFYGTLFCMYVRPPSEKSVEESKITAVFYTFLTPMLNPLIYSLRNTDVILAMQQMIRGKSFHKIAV
# How it was run: as §1
# OR5M3 (Homo sapiens) = target: T3, OR5M3 (Homo sapiens) (UniProt Q8NGP4)
# T3 sequence (whole entry): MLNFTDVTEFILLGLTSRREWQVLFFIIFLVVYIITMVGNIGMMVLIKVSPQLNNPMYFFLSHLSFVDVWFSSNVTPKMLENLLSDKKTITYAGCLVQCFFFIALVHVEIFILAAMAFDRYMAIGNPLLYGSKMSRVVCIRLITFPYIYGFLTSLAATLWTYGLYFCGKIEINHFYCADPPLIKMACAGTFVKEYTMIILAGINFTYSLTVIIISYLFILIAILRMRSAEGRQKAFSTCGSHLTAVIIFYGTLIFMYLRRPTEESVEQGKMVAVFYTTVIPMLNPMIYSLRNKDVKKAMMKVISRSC
# How it was run: as §1
# OR5M8 (Homo sapiens) = target: T4, OR5M8 (Homo sapiens) (UniProt Q8NGP6)
# T4 sequence (whole entry): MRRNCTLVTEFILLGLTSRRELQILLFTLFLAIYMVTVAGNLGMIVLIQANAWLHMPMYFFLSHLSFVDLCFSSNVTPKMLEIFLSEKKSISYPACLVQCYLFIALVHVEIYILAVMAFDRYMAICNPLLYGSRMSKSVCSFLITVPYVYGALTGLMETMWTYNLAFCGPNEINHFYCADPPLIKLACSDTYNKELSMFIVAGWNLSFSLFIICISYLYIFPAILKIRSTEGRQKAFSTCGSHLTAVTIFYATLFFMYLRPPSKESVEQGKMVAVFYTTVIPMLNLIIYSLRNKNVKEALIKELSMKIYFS
# How it was run: as §1
# OR5M9 (Homo sapiens) = target: T5, OR5M9 (Homo sapiens) (UniProt Q8NGP3)
# T5 sequence (whole entry): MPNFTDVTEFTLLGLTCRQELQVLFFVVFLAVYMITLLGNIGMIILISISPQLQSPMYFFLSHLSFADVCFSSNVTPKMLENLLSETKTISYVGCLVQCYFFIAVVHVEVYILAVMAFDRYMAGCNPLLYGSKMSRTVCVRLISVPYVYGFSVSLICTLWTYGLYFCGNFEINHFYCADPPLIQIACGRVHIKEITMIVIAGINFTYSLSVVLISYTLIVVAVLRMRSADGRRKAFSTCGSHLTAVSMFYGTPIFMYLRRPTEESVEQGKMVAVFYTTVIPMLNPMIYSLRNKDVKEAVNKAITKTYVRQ
# How it was run: as §1
# OR5MA = test system: T6, OR5MA
# T6 sequence (whole entry): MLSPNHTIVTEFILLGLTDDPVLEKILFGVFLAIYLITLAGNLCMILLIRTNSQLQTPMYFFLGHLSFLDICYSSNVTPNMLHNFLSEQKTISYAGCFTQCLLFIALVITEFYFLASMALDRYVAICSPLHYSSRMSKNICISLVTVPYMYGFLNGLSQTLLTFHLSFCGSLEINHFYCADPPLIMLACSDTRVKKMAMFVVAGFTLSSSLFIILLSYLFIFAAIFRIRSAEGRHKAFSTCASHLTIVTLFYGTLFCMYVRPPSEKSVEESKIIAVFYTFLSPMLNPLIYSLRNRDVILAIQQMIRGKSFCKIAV
# How it was run: as §1
# OR5P2 (Homo sapiens) = target: T7, OR5P2 (Homo sapiens) (UniProt Q8WZ92)
# T7 sequence (whole entry): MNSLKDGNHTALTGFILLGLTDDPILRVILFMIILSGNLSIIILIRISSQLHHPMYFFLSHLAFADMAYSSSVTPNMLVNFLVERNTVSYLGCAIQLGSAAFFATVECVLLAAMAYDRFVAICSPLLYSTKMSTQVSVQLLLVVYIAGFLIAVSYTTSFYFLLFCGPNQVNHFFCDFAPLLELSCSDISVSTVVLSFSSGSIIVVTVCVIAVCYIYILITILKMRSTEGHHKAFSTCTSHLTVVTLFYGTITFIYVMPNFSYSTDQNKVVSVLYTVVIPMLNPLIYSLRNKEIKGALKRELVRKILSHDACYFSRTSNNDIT
# How it was run: as §1
# OR5P3 (Homo sapiens) = target: T8, OR5P3 (Homo sapiens) (UniProt Q8WZ94)
# T8 sequence (whole entry): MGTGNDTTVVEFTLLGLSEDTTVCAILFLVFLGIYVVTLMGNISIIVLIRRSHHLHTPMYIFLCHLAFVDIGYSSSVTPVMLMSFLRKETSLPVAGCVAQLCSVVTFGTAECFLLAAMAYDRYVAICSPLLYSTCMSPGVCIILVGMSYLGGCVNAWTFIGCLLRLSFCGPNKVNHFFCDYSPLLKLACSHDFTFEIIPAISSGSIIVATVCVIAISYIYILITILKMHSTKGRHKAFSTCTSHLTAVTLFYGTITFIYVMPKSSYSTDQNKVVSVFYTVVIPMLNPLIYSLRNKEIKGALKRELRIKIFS
# How it was run: as §1
# OR5R1 = test system: T9, OR5R1
# T9 sequence (whole entry): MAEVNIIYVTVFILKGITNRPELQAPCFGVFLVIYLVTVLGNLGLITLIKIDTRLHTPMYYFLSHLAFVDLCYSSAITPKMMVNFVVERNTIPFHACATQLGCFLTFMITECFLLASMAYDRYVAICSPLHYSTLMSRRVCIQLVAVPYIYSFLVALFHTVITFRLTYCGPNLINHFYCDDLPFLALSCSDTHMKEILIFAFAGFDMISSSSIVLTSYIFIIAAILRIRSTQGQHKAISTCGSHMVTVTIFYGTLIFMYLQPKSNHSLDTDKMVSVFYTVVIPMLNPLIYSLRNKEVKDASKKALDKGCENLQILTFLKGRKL
# How it was run: as §1
# OR5M10 (Homo sapiens) = OR5M10 (Homo sapiens) (UniProt Q6IEU7)
# How it was run: as §1
# 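Note: active if original authors judged signal statistically different from baseline.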
SMILES,odorant receptor agonist call (OR5M11 (Homo sapiens)),odorant receptor agonist call (OR5M1),odorant receptor agonist call (OR5M3 (Homo sapiens)),odorant receptor agonist call (OR5M8 (Homo sapiens)),odorant receptor agonist call (OR5M9 (Homo sapiens)),odorant receptor agonist call (OR5MA),odorant receptor agonist call (OR5P2 (Homo sapiens)),odorant receptor agonist call (OR5P3 (Homo sapiens)),odorant receptor agonist call (OR5R1),odorant receptor agonist call (OR5M10 (Homo sapiens))
CC12CCC(C1)C(C)(C)C2=O (centres undefined),inactive,inactive,inactive,inactive,inactive,inactive,inactive,inactive,inactive,
COc1cc(C=O)ccc1O,inactive,inactive,inactive,inactive,inactive,inactive,inactive,inactive,inactive,
CC=Cc1ccc(O)c(OC)c1,active,active,inactive,inactive,active,active,active,inactive,inactive,
COc1cc(C)ccc1O,inactive,inactive,inactive,inactive,inactive,inactive,inactive,inactive,inactive,
CCCCCCCCCC=O,inactive,inactive,inactive,inactive,inactive,inactive,inactive,inactive,inactive,
CC12C=CCC1C1CCC3CC(=O)CCC3(C)C1CC2 (centres undefined),inactive,active,,inactive,,inactive,,inactive,inactive,inactive
CCC=CCCO,inactive,inactive,inactive,inactive,inactive,inactive,inactive,inactive,inactive,
CC12CCC(CC1)C(C)(C)O2,inactive,inactive,inactive,inactive,inactive,inactive,inactive,inactive,inactive,
CC(C)(C)c1ccc(CCC=O)cc1,inactive,inactive,,inactive,inactive,inactive,inactive,inactive,inactive,
CCCCCCCOC(C)=O,inactive,inactive,,inactive,inactive,inactive,inactive,inactive,inactive,
CCCCCCCC=CC=O,inactive,inactive,inactive,inactive,inactive,inactive,inactive,inactive,inactive,
O=CCc1ccccc1,active,inactive,inactive,inactive,inactive,inactive,inactive,inactive,inactive,
CC(=O)OC(C)(C)C1CC=C(C)CC1 (centres undefined),inactive,inactive,,inactive,inactive,inactive,inactive,inactive,inactive,
CCCCCCCC=O,inactive,inactive,inactive,inactive,inactive,inactive,inactive,inactive,inactive,
CCCCCC(=O)O,inactive,inactive,inactive,inactive,inactive,inactive,inactive,inactive,inactive,
CC(C)C(=O)O,inactive,inactive,inactive,inactive,inactive,inactive,inactive,inactive,inactive,
CC1=CCC(C(C)(C)O)CC1 (centres undefined),inactive,inactive,inactive,inactive,inactive,inactive,inactive,active,inactive,
CC(C)=CCCC(C)=CC=O,inactive,inactive,,inactive,inactive,inactive,inactive,inactive,inactive,
CC(C)C=O,inactive,inactive,inactive,inactive,inactive,inactive,inactive,inactive,inactive,
C=CC(C)(O)CCC=C(C)C (centres undefined),inactive,inactive,inactive,inactive,inactive,inactive,inactive,inactive,inactive,
C=CCc1ccc(OC)c(OC)c1,inactive,inactive,inactive,inactive,inactive,active,inactive,active,inactive,
C=CCc1ccc(OC(C)=O)c(OC)c1,active,inactive,,inactive,inactive,inactive,active,inactive,inactive,
CC(C)CC(=O)O,inactive,inactive,inactive,inactive,inactive,inactive,inactive,inactive,inactive,
CCCC(=O)O,inactive,inactive,inactive,inactive,inactive,inactive,inactive,inactive,inactive,

# Reprinted from the entries so far, 2 compounds:
SMILES,odorant receptor agonist call (OR5M11 (Homo sapiens)),odorant receptor agonist call (OR5M1),odorant receptor agonist call (OR5M3 (Homo sapiens)),odorant receptor agonist call (OR5M8 (Homo sapiens)),odorant receptor agonist call (OR5M9 (Homo sapiens)),odorant receptor agonist call (OR5MA),odorant receptor agonist call (OR5P2 (Homo sapiens)),odorant receptor agonist call (OR5P3 (Homo sapiens)),odorant receptor agonist call (OR5R1),odorant receptor agonist call (OR5M10 (Homo sapiens))
CC12CCC(CC1)C(C)(C)O2,inactive,inactive,inactive,inactive,inactive,inactive,inactive,inactive,inactive,
CC(C)(C)c1ccc(CCC=O)cc1,inactive,inactive,,inactive,inactive,inactive,inactive,inactive,inactive,
